# US20230045522A1, “COMPOSITIONS AND METHODS TO MODULATE GLUCOSE HOMEOSTASIS” (The Board of Supervisors of Louisiana State University and …, priority 2019, published 2023)
# For at least one compound, name, drawing or mass did not settle the structure.
# Experiments:
# ACC = ACC Ser79 phosphorylation in C2C12 myotubes; format: cell-based, murine; conditions: 10 μg/ml; in the presence of insulin and palmitate
# AMPK [1] = assay: AMPK Thr172 phosphorylation in liver of high fat-fed obese mice; format: in vivo, C57BL/6J mice; conditions: gavage, 6 hours
# SIRT1 = SIRT1 protein expression in skeletal muscle of mice; format: in vivo, C57BL/6J mice; conditions: gavage
# [2] = Fasting insulin and C-peptide levels (ELISA) in obese mice; format: in vivo, C57BL/6J male mice; conditions: 6 h after gavage, KOE 500 mg/kg
# LKB1 = LKB1 Ser428 phosphorylation in skeletal muscle of mice; format: in vivo, C57BL/6J mice; conditions: gavage; compared to vehicle gavaged mice
# AMPK [3] = assay: AMPK Thr172 phosphorylation in C2C12 myotubes (immunoblot); format: cell-based, murine; conditions: 10 μg/ml; palmitate 200 μM 16 hours, insulin 200 nM 10 minutes
# Excerpt: Results shown are representative of three independent experiments.
# AMPK [4] = assay: AMPK Thr172 phosphorylation in skeletal muscle of high fat-fed obese mice; format: in vivo, C57BL/6J mice; conditions: gavage, 6 hours, PMI-5011 500 mg/kg, KOE 500 mg/kg, enriched DMC-2 100 mg/kg, synthetic DMC-2 100 or 300 (b207 prints μg/kg)
# AKT = AKT phosphorylation in C2C12 myotubes (Example 4); format: cell-based, murine; conditions: 10 μg/ml; palmitate 16 hours, insulin 10 minutes
# [5] = tested on: AKT phosphorylation in adipose tissue; assay: Insulin signaling in gonadal (epididymal) adipose tissue of obese mice (western blot); format: in vivo, C57BL/6J male mice
# [6] = tested on: insulin signaling in mixed gastrocnemius skeletal muscle; assay: Insulin signaling in mixed gastrocnemius skeletal muscle of obese mice (western blot); format: in vivo, C57BL/6J male mice
# C2C12 or L6 myotubes = assay: Glycogen content in insulin-resistant myotubes; format: cell-based, murine C2C12 or rat L6; conditions: 10 μg/mL; palmitate-induced insulin resistance
# [7] = Blood glucose in very high fat diet obese insulin-resistant mice, 6 h after gavage; format: in vivo, C57BL/6J male mice; conditions: 6 hour treatment, PMI-5011 500 mg/kg, KOE 500 mg/kg, KOF 100 mg/kg, 2 at 100 or 300 mg/kg, metformin 300 mg/kg
# [8] = obese, insulin resistant mice; 2 within six hours of administration; cited from earlier work
# [9] = tested on: proteins in insulin signaling pathway; assay: Insulin signaling in palmitate-treated insulin-resistant C2C12 myotubes (western blot); format: cell-based, murine; conditions: each at 10 μg/mL; palmitate overnight; insulin 10 minutes
compound,measurement,setting,value
"COc1ccc(CCC(=O)c2ccc(O)cc2O)cc1 [Compound 2, 2′,4′-dihydroxy-4-methoxydihydrochalcone]",phosphorylation of ACC at Ser79,ACC,unaffected
same,phosphorylation of AMPK at Thr172 in liver,AMPK [1],not changed
same,protein expression of SIRT1,SIRT1,comparable to the level of SIRT1 in muscle tissue of vehicle-treated mice
same,insulin levels,[2]; higher dose of synthetic 2 (300 mg/kg),increased insulin levels significantly
same,C-peptide levels,[2]; synthetic 2 higher dose (300 mg/kg),increased C-peptide levels
same,phosphorylation of LKB1 Ser428 in skeletal muscle,LKB1,not different from the level detected in the skeletal muscle tissue of vehicle-treated mice
same,phosphorylation of AMPK in the presence of insulin and palmitate,AMPK [3],slight increase
same,AMPK phosphorylation at Thr172,AMPK [4],not changed
same,insulin stimulated AKT phosphorylation,AKT,this effect was mediated by
same,AKT threonine308 phosphorylation,[5]; 6 h,not by treatment with the synthetic 2
same,total AKT,"[5]; KOF 100 mg/kg, 2 at 300 mg/kg body weight",upregulation
same,IRO tyrosine1150 phosphorylation,"[6]; mixed gastrocnemius, 6 h, synthetic 2 independent of concentration",not by synthetic 2
same,levels of the PI3K-p85 subunit,"[6]; skeletal muscle, 100 mg/kg, within 6 h",increased levels
same,glycogen content,C2C12 or L6 myotubes,restored this activity
same,blood glucose levels,[7],significantly reduced
same,blood glucose levels,[7]; listed as DMC-2,reduced blood glucose levels comparable to Metformin
same,blood glucose levels (earlier studies),[8],pronounced hypoglycemic effects
same,insulin-dependent AKT phosphorylation at threonine 308 and serine 273 in the presence of palmitate,[9],restored
